## Drug screen on melanoma cell lines: cell count

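Human melanoma cell lines in 1,536-well plates were treated with a pair of drugs for 72 h, then fixed, stained and imaged. Each value is the count of nuclei relative to DMSO-treated wells, in %, so that 100 equals the control. Concentrations were fixed for each drug; these are the lower of two levels, a fifth of the higher. No replicate spread is given; individual values may be noisy.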
Only some of the drugs and lines screened are listed, without regard to their results.

Compounds and concentrations:
perifosine (0.4 µM): CCCCCCCCCCCCCCCCCCOP(=O)([O-])OC1CC[N+](C)(C)CC1
RKI-983 (0.4 µM): C[C@@H](N)c1ccc(C(=O)Nc2ccnc3[nH]ccc23)cc1
PLX4720 (0.08 µM): CCCS(=O)(=O)Nc1ccc(F)c(C(=O)c2c[nH]c3ncc(Cl)cc23)c1F
VX-702 (0.4 µM): NC(=O)c1ccc(N(C(N)=O)c2c(F)cccc2F)nc1-c1ccc(F)cc1F
lenalidomide (1 µM): Nc1cccc2c1CN(C1CCC(=O)NC1=O)C2=O (stereo not shown)
pazopanib (0.4 µM): Cc1ccc(Nc2nccc(N(C)c3ccc4c(C)n(C)nc4c3)n2)cc1S(N)(=O)=O
sorafenib (0.4 µM): CNC(=O)c1cc(Oc2ccc(NC(=O)Nc3ccc(Cl)c(C(F)(F)F)c3)cc2)ccn1
docetaxel (0.0001 µM): CC(=O)O[C@@]12CO[C@@H]1C[C@H](O)[C@@]1(C)C(=O)[C@H](O)C3=C(C)[C@@H](OC(=O)[C@H](O)[C@@H](NC(=O)OC(C)(C)C)c4ccccc4)C[C@@](O)([C@@H](OC(=O)c4ccccc4)[C@H]21)C3(C)C
bexarotene (2 µM): C=C(c1ccc(C(=O)O)cc1)c1cc2c(cc1C)C(C)(C)CCC2(C)C
stibogluconate (2 µM): O=C(O)[C@@H]1[O][Sb](=[O])([O][Sb]2(=[O])[O][C@H]([C@H](O)CO)[C@H](O)[C@H](C(=O)O)[O]2)[O][C@H]([C@H](O)CO)[C@@H]1O (stereo partly shown)

| Combination | A101D | COLO 829 | A375 | LB2518-MEL | G-361 |
|---|---|---|---|---|---|
| pazopanib + VX-702 | 86.7 | 110 | 92.5 | 86.7 | 101 |
| VX-702 + docetaxel | 76.9 | 49.6 | 60.0 | 85.8 | 28.2 |
| perifosine + PLX4720 | 109 | 133 | 92.7 | 121 | 105 |
| pazopanib + docetaxel | 68.5 | 61.1 | 36.3 | 87.0 | 27.1 |
| RKI-983 + docetaxel | 82.5 | 58.7 | 24.7 | 81.9 | 27.0 |
| RKI-983 + perifosine | 93.0 | 75.1 | 72.9 | 123 | 108 |
| perifosine + pazopanib | 97.3 | 92.7 | 82.8 | 111 | 105 |
| pazopanib + sorafenib | 94.5 | 88.4 | 89.5 | 88.5 | 86.8 |
| bexarotene + VX-702 | 109 | 118 | 83.3 | 106 | 89.8 |
| perifosine + bexarotene | 96.4 | 77.6 | 80.0 | 99.0 | 87.3 |
| PLX4720 + stibogluconate | 85.8 | 110 | 81.3 | 102 | 96.3 |
| sorafenib + lenalidomide | 104 | 95.1 | 113 | 100 | 92.4 |
| bexarotene + pazopanib | 84.8 | 109 | 81.0 | 108 | 70.5 |
| bexarotene + sorafenib | 108 | 96.4 | 118 | 119 | 91.0 |
| docetaxel + stibogluconate | 66.6 | 35.9 | 31.2 | 66.9 | 22.9 |
| bexarotene + PLX4720 | 115 | 117 | 93.1 | 114 | 80.8 |
| sorafenib + perifosine | 108 | 90.1 | 96.0 | 116 | 85.6 |
| bexarotene + stibogluconate | 97.2 | 85.0 | 96.3 | 107 | 77.7 |
| VX-702 + sorafenib | 101 | 91.9 | 73.9 | 90.9 | 82.5 |
| RKI-983 + sorafenib | 101 | 93.6 | 85.3 | 113 | 93.3 |
| PLX4720 + docetaxel | 76.0 | 64.5 | 30.8 | 83.5 | 28.0 |
| lenalidomide + perifosine | 96.2 | 108 | 84.8 | 97.0 | 103 |
| pazopanib + stibogluconate | 87.2 | 102 | 104 | 86.9 | 74.4 |
| sorafenib + PLX4720 | 100 | 130 | 61.9 | 99.3 | 89.5 |
| PLX4720 + pazopanib | 107 | 141 | 93.1 | 99.8 | 84.6 |
| lenalidomide + VX-702 | 103 | 84.5 | 106 | 100 | 111 |
| RKI-983 + bexarotene | 85.3 | 107 | 77.4 | 88.0 | 62.3 |
| RKI-983 + lenalidomide | 110 | 99.7 | 77.5 | 130 | 107 |
| lenalidomide + PLX4720 | 97.0 | 99.9 | 68.4 | 104 | 88.8 |
| stibogluconate + RKI-983 | 77.9 | 100 | 88.5 | 114 | 108 |
| stibogluconate + VX-702 | 109 | 125 | 101 | 95.8 | 101 |
| RKI-983 + pazopanib | 92.9 | 100 | 96.1 | 113 | 100 |
| PLX4720 + RKI-983 | 87.3 | 112 | 93.8 | 132 | 88.3 |
| bexarotene + docetaxel | 56.3 | 46.1 | 22.2 | 79.0 | 18.7 |
| pazopanib + lenalidomide | 95.5 | 88.8 | 84.4 | 91.6 | 102 |
| perifosine + docetaxel | 69.1 | 56.9 | 40.6 | 72.5 | 17.8 |
| stibogluconate + perifosine | 106 | 107 | 105 | 90.6 | 104 |

For reference, 3 entries once more:

| Combination | A101D | COLO 829 | A375 | LB2518-MEL | G-361 |
|---|---|---|---|---|---|
| PLX4720 + stibogluconate | 85.8 | 110 | 81.3 | 102 | 96.3 |
| bexarotene + VX-702 | 109 | 118 | 83.3 | 106 | 89.8 |
| stibogluconate + RKI-983 | 77.9 | 100 | 88.5 | 114 | 108 |

Values as published with doi:10.1371/journal.pone.0140310, rounded.